The NIST ThermoML archive (doi:10.1016/j.jct.2014.05.003)
Numbers after ± are expanded uncertainties.

Test: relative permittivity at zero frequency (dimensionless); wn = mass fraction of the nth substance listed
Details: 298.15 K, 100 kPa, Liquid, Coaxial cylinder capacitor

relative permittivity at zero frequency (w1 = 0.1): 76.5 ± 0.2
relative permittivity at zero frequency (w1 = 0.2): 74.2 ± 0.2
relative permittivity at zero frequency (w1 = 0.3): 71.7 ± 0.2
SMILES: CC(=O)N(C)C [N,N-dimethylethanamide] + O
